# Some entries share one result that the patent states for a list of compounds.
# Experiments:
# [1] = tested on: Wheat (cv. Anza) suspension culture; experiment: Single cell production from wheat (cv. Anza) suspension culture; format: cell-based; details: 25 nM to 1 mM
# [2] = tested on: JTNT1 tobacco cell suspension cultures; experiment: Single cell production, growth and viability of JTNT1 suspension with microtubule inhibitors in 24-well plates, glycerol medium
# Source text: JTNT1 Tobacco Suspension Cultures. […] Furthermore, Suc stabilizes preformed microtubules, making an examination of the effects of MTIs on preformed microtubules unfeasible. In addition, sucrose increases solution viscosity substantially, and tubulin polymerization is altered at least in part by slowed dimer and polymer diffusion rates. Thus, it was important to have low or no sucrose in medium where the single cell production. Thus, a new JTNT1 line habituated in Glycerol was developed for this study.
# Each of the 24 well contained 1 ml of JTNT1 suspension. The 24-well plates were kept on an Innova 4900 Multi Environmental Shaker with special clamps and harnesses to allow stacking of plates up to 6 plates high. The plates were rotated at a speed of 130 rpm and 25° C. in dark.
# Single Cell Production. Each compound was dissolved in dimethyl sulfoxide (DMSO) to provide 0.5 Molar stock solutions. One ml of JTNT1 suspension (1 ml PCV/20 ml tobacco media) was added to each well of the 24 well plates. To each well an individual chemical was added to achieve the desired concentrations (at 1 μM, 3 μM, and 10 μM). The cultures were allowed to grow for 7 days on the Innova Shaker. Each day turbidity measurements was taken on each well using a SpectraMax M2^e by Molecular devices (set at 600 absorbance, with 5 readings taken per well). […]
Compound,time from which single cells were released after culture initiation [1] [days],"concentration for optimal single cell production, lower end of range [2] [nM]","concentration for optimal single cell production, upper end of range [2] [mM]"
COc1cc2c(c(OC)c1OC)-c1ccc(OC)c(=O)cc1[C@@H](NC(C)=O)CC2 [Colchicine],≥ 3,–,–
CCCN(CCC)c1c([N+](=O)[O-])cc(C(F)(F)F)cc1[N+](=O)[O-] [Trifluralin],–,≥ 100,≤ 1

# From patent publication US8206983B2, “In vitro methods for the induction and maintenance of plant cell lines as single suspension cells with intact cell walls” (Dow AgroSciences, LLC., priority 2006, dated 2012)
